Experimental data as given in article PMC12373733.
Results are given in words; binding and its absence hold for the method and conditions named. In cells and extracts the contact can be indirect. Binding can be weak; no strength is given.

Experiments:
[1] = molecular target: mature form of SREBP2 (mSREBP2) (human (endogenous in NCI-H929)); test: co-IP; anti-SREBP1 or anti-SREBP2 antibodies, lysates of control and LPIN1-knockdown NCI-H929 cells; Western blot
[2] = molecular target: mature form of SREBP1 (mSREBP1) (human (endogenous in NCI-H929)); test: as above

binding [1]: binds | binding [2]: binds
B1: Lipin1 (protein, UniProt Q14693 1-890)
chain: MNYVGQLAGQVFVTVKELYKGLNPATLSGCIDIIVIRQPNGNLQCSPFHVRFGKMGVLRSREKVVDIEINGESVDLHMKLGDNGEAFFVQETDNDQEVIPMHLATSPILSEGASRMECQLKRGSVDRMRGLDPSTPAQVIAPSETPSSSSVVKKRRKRRRKSQLDSLKRDDNMNTSEDEDMFPIEMSSDEAMELLESSRTLPNDIPPFQDDIPEENLSLAVIYPQSASYPNSDREWSPTPSPSGSRPSTPKSDSELVSKSTERTGQKNPEMLWLWGELPQAAKSSSPHKMKESSPLSSRKICDKSHFQAIHSESSDTFSDQSPTLVGGALLDQNKPQTEMQFVNEEDLETLGAAAPLLPMIEELKPPSASVVQTANKTDSPSRKRDKRSRHLGADGVYLDDLTDMDPEVAALYFPKNGDPSGLAKHASDNGARSANQSPQSVGSSGVDSGVESTSDGLRDLPSIAISLCGGLSDHREITKDAFLEQAVSYQQFVDNPAIIDDPNLVVKIGSKYYNWTTAAPLLLAMQAFQKPLPKATVESIMRDKMPKKGGRWWFSWRGRNTTIKEESKPEQCLAGKAHSTGEQPPQLSLATRVKHESSSSDEERAAAKPSNAGHLPLLPNVSYKKTLRLTSEQLKSLKLKNGPNDVVFSVTTQYQGTCRCEGTIYLWNWDDKVIISDIDGTITRSDTLGHILPTLGKDWTHQGIAKLYHKVSQNGYKFLYCSARAIGMADMTRGYLHWVNERGTVLPQGPLLLSPSSLFSALHREVIEKKPEKFKVQCLTDIKNLFFPNTEPFYAAFGNRPADVYSYKQVGVSLNRIFTVNPKGELVQEHAKTNISSYVRLCEVVDHVFPLLKRSHSSDFPCSDTFSNFTFWREPLPPFENQDIHSASA
